This is one part of the list.
Target: OsWRKY34 (Oryza sativa, UniProt Q0JBA9 1-250)
Assay: protein-binding microarray (RPBM); PBS, 2% BSA, 51.3 ng/ul salmon testes DNA, 50 uM zinc acetate, 200 nM TF, 25 C, 1 h; high values mean tight binding
Details: protein: recombinant; tags: N-terminal polyhistidine and DsRed monomer fusion (pET32a); label: CyDye5-dUTP incorporated in the synthesized complementary strand; 3' TTTTT single-stranded linker to array surface; dsDNA, one strand shown
In short: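 Using Ni–NTA, transcription factors fused N-terminally to polyhistidine and DsRed were purified after expression in E. coli BL21-CodonPlus. These were incubated at 200 nM with a blocked, double-stranded custom Agilent array for 1 h at 25 °C in a buffer containing 50 µM zinc acetate, and the array was washed. The binding signal is per-feature fluorescence intensity (arbitrary units) on an Axon 4000B scanner.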

Protein sequences, listed by entry. Tags and fused reporters are not part of them.
UniProt Q0JBA9, entry or part of it: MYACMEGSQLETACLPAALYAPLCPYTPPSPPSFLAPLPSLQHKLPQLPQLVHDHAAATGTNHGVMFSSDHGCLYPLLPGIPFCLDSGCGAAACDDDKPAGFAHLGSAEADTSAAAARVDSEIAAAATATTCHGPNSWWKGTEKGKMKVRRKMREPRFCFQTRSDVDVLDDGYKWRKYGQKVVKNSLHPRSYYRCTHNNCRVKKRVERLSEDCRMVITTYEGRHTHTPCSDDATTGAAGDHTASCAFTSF

Row | Sequence | binding signal
1 | CACCCACCAAAACCTCCCACGCACATCTGCCGCGCACGCTCGGAGTCACCTAGTGCAG | 8450 fluorescence intensity (a.u.)
2 | CCATTATCAGACGATCTTGCTGACCATAAGCTGTACCACACGGAGTCACCTAGTGCAG | 9350 fluorescence intensity (a.u.)
3 | AATGTATGATGCCGTTGACTTTTCGACTAACGTTTGACCACGGAGTCACCTAGTGCAG | 29200 fluorescence intensity (a.u.)
4 | CTCACCCCACTCGTTTGCTTGCGTTGCGTGCACAGCGACCCGGAGTCACCTAGTGCAG | 8840 fluorescence intensity (a.u.)
5 | GTGGGTAGGTATTCTTGTTTGATCATGTTTAAGCAGGCGCCGGAGTCACCTAGTGCAG | 9790 fluorescence intensity (a.u.)
6 | AGTGTCTTTGACTTTTTGTTTGTAACGTTTGACCATTCGTCGGAGTCACCTAGTGCAG | 21900 fluorescence intensity (a.u.)
7 | ACTCCCAATCCGCATCTCCCTCCGCTGCGCCGGCGCCGCCCGGAGTCACCTAGTGCAG | 8850 fluorescence intensity (a.u.)
8 | AACCGTTTCATGAAATTTGGCATATGTTGTCTAGGATTCTCGGAGTCACCTAGTGCAG | 8430 fluorescence intensity (a.u.)
9 | TACCTACTTTCTCATCTTAAGCAATCACTTCGACTTTAATCGGAGTCACCTAGTGCAG | 9820 fluorescence intensity (a.u.)
10 | CTACACCGACCGTGCATCCACTCACCCACGAAGTCTGTCACGGAGTCACCTAGTGCAG | 10500 fluorescence intensity (a.u.)
11 | TGTCCGTCCCTGTCTGATTCCGCCGCGCCTGACCAGACTCCGGAGTCACCTAGTGCAG | 9500 fluorescence intensity (a.u.)
12 | TTTGATGGATCGGTGTGTACTCATGGTTGTGGTATCTGCCCGGAGTCACCTAGTGCAG | 8380 fluorescence intensity (a.u.)
13 | TCCTACTCGTCGCTGTCATCGCCGTCTCCGACACATACTTCGGAGTCACCTAGTGCAG | 9700 fluorescence intensity (a.u.)
14 | CGCCCCACCCGGCCACCCCTACCCGAAGCTCTCTGCTGCTCGGAGTCACCTAGTGCAG | 9180 fluorescence intensity (a.u.)
15 | CAGCCCTGTCGTTTCTCTGCAGCATTTAATTACACACAAACGGAGTCACCTAGTGCAG | 10700 fluorescence intensity (a.u.)
16 | GAGTACAGCTCCATCCTTTTGTTTGTTATTGTCTTTTTACCGGAGTCACCTAGTGCAG | 8400 fluorescence intensity (a.u.)
17 | GGTTTGTTCATATGTGGCGGTGGGATCGAGATTATCTAACCGGAGTCACCTAGTGCAG | 8890 fluorescence intensity (a.u.)
18 | TGATGAGTTATACCCGGTTTTGTGGTGTAGGGGCGAATTTCGGAGTCACCTAGTGCAG | 8520 fluorescence intensity (a.u.)
19 | TTGGGGTTGCTCAGTTTGTTAGGTTTGGTTAATTTTTCTTCGGAGTCACCTAGTGCAG | 16000 fluorescence intensity (a.u.)
20 | GTACATACCAATTTTTATAATATTATTTTAACTCTACTTTCGGAGTCACCTAGTGCAG | 8080 fluorescence intensity (a.u.)
21 | CTCACCTGCTCCTTCAGTCAGCTCAGCTCTTCACTTCTGCCGGAGTCACCTAGTGCAG | 8220 fluorescence intensity (a.u.)

An excerpt of these results, as tab-separated lines.
Row	Sequence	binding signal
1	CACCCACCAAAACCTCCCACGCACATCTGCCGCGCACGCTCGGAGTCACCTAGTGCAG	8450 fluorescence intensity (a.u.)
2	CCATTATCAGACGATCTTGCTGACCATAAGCTGTACCACACGGAGTCACCTAGTGCAG	9350 fluorescence intensity (a.u.)
3	AATGTATGATGCCGTTGACTTTTCGACTAACGTTTGACCACGGAGTCACCTAGTGCAG	29200 fluorescence intensity (a.u.)
4	CTCACCCCACTCGTTTGCTTGCGTTGCGTGCACAGCGACCCGGAGTCACCTAGTGCAG	8840 fluorescence intensity (a.u.)
5	GTGGGTAGGTATTCTTGTTTGATCATGTTTAAGCAGGCGCCGGAGTCACCTAGTGCAG	9790 fluorescence intensity (a.u.)
6	AGTGTCTTTGACTTTTTGTTTGTAACGTTTGACCATTCGTCGGAGTCACCTAGTGCAG	21900 fluorescence intensity (a.u.)
7	ACTCCCAATCCGCATCTCCCTCCGCTGCGCCGGCGCCGCCCGGAGTCACCTAGTGCAG	8850 fluorescence intensity (a.u.)
8	AACCGTTTCATGAAATTTGGCATATGTTGTCTAGGATTCTCGGAGTCACCTAGTGCAG	8430 fluorescence intensity (a.u.)
9	TACCTACTTTCTCATCTTAAGCAATCACTTCGACTTTAATCGGAGTCACCTAGTGCAG	9820 fluorescence intensity (a.u.)

(continued)

Row | Sequence | binding signal
22 | ACATCCCACCAAAATCTCTTATATTTAGGGACGTGGGGAGCGGAGTCACCTAGTGCAG | 8710 fluorescence intensity (a.u.)
23 | CTTTTGTCTGTTTTAATGTCGTACTACGTAGATCCCTATTCGGAGTCACCTAGTGCAG | 11600 fluorescence intensity (a.u.)
24 | CACACGCACGCTTCTCACGTACATATCGATCGCAAATATCCGGAGTCACCTAGTGCAG | 8490 fluorescence intensity (a.u.)
25 | ATCTTTTCTTGGGACATTTCTTCTGCTGATCTTTAGAGCTCGGAGTCACCTAGTGCAG | 8390 fluorescence intensity (a.u.)
26 | GCTTCCGCTCTTCATCGGTGGCTGGCTATCCTCGAGCGCTCGGAGTCACCTAGTGCAG | 9430 fluorescence intensity (a.u.)
27 | TCCATCTGTCACAAATTCTCATGTCCCTTTTTGTCATTAGCGGAGTCACCTAGTGCAG | 12000 fluorescence intensity (a.u.)
28 | TTCTCGGCCGCCTTCGTGTTCGCCATCATCTCCGACTACACGGAGTCACCTAGTGCAG | 15700 fluorescence intensity (a.u.)
29 | CTTCTGCATGCCCAATCGCCCATGCTGCAACCGCACATAACGGAGTCACCTAGTGCAG | 9280 fluorescence intensity (a.u.)
30 | AGTTAGGTTGAGTGTGTTATCTAGCCATTTTATGTTAAAACGGAGTCACCTAGTGCAG | 8390 fluorescence intensity (a.u.)
31 | TGTATCTAGCTTCGTAACATAGCTTTAGTTGTCGCCGACCCGGAGTCACCTAGTGCAG | 8110 fluorescence intensity (a.u.)
32 | TTCCGAGGTTTCTTGTGCTAATCGGTGACTTTTTACCCGTCGGAGTCACCTAGTGCAG | 10300 fluorescence intensity (a.u.)
33 | CTCCGCCGCTCTGCTCACCATTTCCTCTCTCGTAGCCATGCGGAGTCACCTAGTGCAG | 9310 fluorescence intensity (a.u.)
34 | GTCACCATCAAAATAGCTTCATATCTTCCCTGGAAATTTTCGGAGTCACCTAGTGCAG | 8160 fluorescence intensity (a.u.)
35 | CTCTCTCTCTTTCTCTCTCTCTCTCTCCCCTACCTATCTTCGGAGTCACCTAGTGCAG | 9000 fluorescence intensity (a.u.)
36 | CCCGCCGTGGCGCCGGCGCCGTTCCCCGACCTGATCCAGTCGGAGTCACCTAGTGCAG | 8550 fluorescence intensity (a.u.)
37 | CGCCGTCGTTCGTCCTGCTGCTTCCGCCGCATCCATCCTGCGGAGTCACCTAGTGCAG | 9250 fluorescence intensity (a.u.)
38 | CATCTCCAGGCAGCCGGCCGTTGCTTCATCGACACGTATACGGAGTCACCTAGTGCAG | 9030 fluorescence intensity (a.u.)
39 | TACGACCGGAATAACTTCTTGCCCAAAAGCTTTTTCATATCGGAGTCACCTAGTGCAG | 8740 fluorescence intensity (a.u.)
40 | TCGCGACCTCCACCGCCTGCGTCACACGCCACACCACATCCGGAGTCACCTAGTGCAG | 8610 fluorescence intensity (a.u.)
41 | CGACCATCAATCAGTCGCTTGCTACGTCGCTTTCCTGATTCGGAGTCACCTAGTGCAG | 11500 fluorescence intensity (a.u.)
42 | CACATATTAGTTACGGCCTACAATAGACTTTCGGTTAACCCGGAGTCACCTAGTGCAG | 10300 fluorescence intensity (a.u.)

— article PMC7819943, “Rice protein-binding microarrays: a tool to detect cis-acting elements near promoter regions in rice”
